{"source": "PubChem BioAssay AID1224830, NIAID, 2016", "screen": "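Regulators of TLR4 signalling towards TNF-alpha in macrophage-like cells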 (primary screen)", "cells": "human THP-1 monocytic leukaemia cells, TNF dual-luciferase reporter clone, PMA-differentiated to macrophage-like cells", "knock-down reagent": "siRNA pool against human genes, 50 nM", "timing": "LPS for 4 h, given about 3 days after siRNA transfection", "treatment": "bacterial LPS (TLR4 ligand), 10 ng/ml", "detection": "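TNF firefly reporter luminescence divided by renilla, normalised to the plate median, then turned into a robust z-score for each replicate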", "reading the numbers": "TNF reporter robust z-score: higher = stronger TNF reporter response to LPS", "call rule": "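a well is active when its z-score exceeds 2.8 or falls below -1.5; control wells carry no call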", "note": "Shown is an unselected part of about 18,000 reagents. About 2,900 of all reagents (16%) were called active. 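Calls are made per well; low scores hint the gene aids the LPS response, high scores that it dampens it.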 Unmarked entries are inactive. Repeated entries: four replicate wells of each siRNA pool. No sequences are given here."}
{"Gene": "CBFA2T2", "TNF reporter robust z-score": 0.43}
{"Gene": "CBFA2T2", "TNF reporter robust z-score": -0.11}
{"Gene": "CBFA2T2", "TNF reporter robust z-score": -0.36}
{"Gene": "CBFA2T2", "TNF reporter robust z-score": 0.66}
{"Gene": "MED26", "TNF reporter robust z-score": -1.18}
{"Gene": "MED26", "TNF reporter robust z-score": "-1.59 (active)"}
{"Gene": "MED26", "TNF reporter robust z-score": -1.43}
{"Gene": "MED26", "TNF reporter robust z-score": -1.36}
{"Gene": "FBXL9P", "TNF reporter robust z-score": "-1.75 (active)"}
{"Gene": "FBXL9P", "TNF reporter robust z-score": 0.2}
{"Gene": "FBXL9P", "TNF reporter robust z-score": 1.28}
{"Gene": "FBXL9P", "TNF reporter robust z-score": 0.61}

Continued; the last 2 above are carried over.
{"Gene": "FBXL9P", "TNF reporter robust z-score": 1.28}
{"Gene": "FBXL9P", "TNF reporter robust z-score": 0.61}
{"Gene": "MICAL1", "TNF reporter robust z-score": -0.91}
{"Gene": "MICAL1", "TNF reporter robust z-score": -1.34}
{"Gene": "MICAL1", "TNF reporter robust z-score": -0.87}
{"Gene": "MICAL1", "TNF reporter robust z-score": -0.85}
{"Gene": "LRRC36", "TNF reporter robust z-score": 0.9}
{"Gene": "LRRC36", "TNF reporter robust z-score": 0.8}
{"Gene": "LRRC36", "TNF reporter robust z-score": 2.16}
